# Results from one PubChem assay

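CellTiter-Glo luminescence measures how many UOK109 TFE3-RCC cells stay viable after two days of treatment.
Each compound was run as a concentration series, and the potency comes from that titration.
The number is the fitted AC50 for loss of viability; a lower value means a more potent compound.
All of these compounds are filed inconclusive. An active call needs an area-under-curve z-score below -0.8 in all three TFE3-fusion lines, and an inactive call needs flat class-4 curves in all three.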

Values are in µM.
All entries here are filed as inconclusive.
These entries are mostly ones the record files as inconclusive; other results of the assay are not listed here.
A potency from a partial, single-point or poor curve is only a rough figure.
Some entries filed as inconclusive have a full curve.
Activity scores are not listed here.

{"smiles": "CC(C)C[C@H](CC(=O)O)C(=O)N[C@@H](Cc1c[nH]c2ccccc12)C(=O)N[C@@H](C)c1ccccc1", "condition": "active = Z-AUC below -0.8 in all three lines", "potency (µM)": "1.321", "curve as filed": "falling, full curve"}
{"smiles": "Cc1c(-c2cccc3c(CCCOc4cccc5ccccc45)c(C(=O)O)n(Cc4cccnc4)c23)c(COc2ccc(N3CCN([S+](=O)([O-])N(C)C)CC3)cc2)nn1C", "condition": "active = Z-AUC below -0.8 in all three lines", "potency (µM)": "3.317", "curve as filed": "falling, partial curve, poor fit"}
{"smiles": "NS(=O)(=O)c1ccc(Nc2nc(OCC3CCCCC3)c3[nH]cnc3n2)cc1", "condition": "active = Z-AUC below -0.8 in all three lines", "potency (µM)": "10.49", "curve as filed": "falling, partial curve, poor fit"}
{"smiles": "Cc1ccc(NC(=O)Nc2cc(C(F)(F)F)ccc2F)cc1Nc1ccc2c(c1)NC(=O)C2=Cc1ccc[nH]1", "condition": "active = Z-AUC below -0.8 in all three lines", "potency (µM)": "26.35", "curve as filed": "falling, single point"}
{"smiles": "Cc1c(C(=O)c2cccc3ccccc23)c2cccc3c2n1[C@H](CN1CCOCC1)CO3", "potency (µM)": "18.65", "curve as filed": "falling, partial curve"}
{"smiles": "Cc1c(N)nc([C@H](CC(N)=O)NC[C@@H](N)C(N)=O)nc1C(=O)N[C@H](C(=O)N[C@@H](C)[C@H](O)[C@@H](C)C(=O)N[C@@H](C(=O)NCCc1nc(-c2nc(C(=O)NCCC[S+](C)C)cs2)cs1)[C@@H](C)O)C(O[C@H]1O[C@H](CO)[C@H](O)[C@@H](O)[C@@H]1O[C@H]1O[C@H](CO)[C@@H](O)[C@H](OC(N)=O)[C@H]1O)c1cnc[nH]1", "stereo": "stereo not given in full", "potency (µM)": "1.321", "curve as filed": "falling, full curve"}
{"smiles": "C[C@]12CC[C@H]3[C@@H](CC[C@@]45O[C@H]4C(O)=C(C#N)C[C@]35C)[C@H]1CC[C@H]2O", "potency (µM)": "20.93"}
{"smiles": "CC(C)(C)NC(=O)[C@H]1CC[C@H]2[C@@H]3CC[C@H]4NC(=O)C=C[C@]4(C)[C@H]3CC[C@]12C", "condition": "active = Z-AUC below -0.8 in all three lines", "potency (µM)": "1.482", "curve as filed": "falling, full curve"}
{"smiles": "CN1C(C(=O)Nc2ccccn2)=C(O)c2sc(Cl)cc2S1(=O)=O", "condition": "active = Z-AUC below -0.8 in all three lines", "potency (µM)": "8.333", "curve as filed": "falling, full curve"}
{"smiles": "CN(C)c1ccc(C(=O)NCCCCCCC(=O)NO)cc1", "condition": "active = Z-AUC below -0.8 in all three lines", "potency (µM)": "4.176", "curve as filed": "falling, full curve"}
{"smiles": "CCCc1nc(C)c2c(=O)[nH]c(-c3cc(S(=O)(=O)N4CCN(CC)CC4)ccc3OCC)nn12", "condition": "active = Z-AUC below -0.8 in all three lines", "potency (µM)": "16.63", "curve as filed": "falling, partial curve"}
{"smiles": "C#C[C@]1(O)CC[C@@H]2[C@@H]3CCc4cc(O)ccc4[C@H]3CC[C@@]21C", "condition": "active = Z-AUC below -0.8 in all three lines", "potency (µM)": "14.82", "curve as filed": "falling, partial curve"}
{"smiles": "COc1ccc(N(C(=O)Oc2c(C)cccc2C)c2ccnc(Nc3ccc(N4CCN(C)CC4)cc3)n2)c(OC)c1", "potency (µM)": "14.82", "curve as filed": "falling, partial curve"}
{"smiles": "CNC(=O)N1N=C(c2ccc(N)cc2)c2cc3c(cc2CC1C)OCO3", "stereo": "stereo not given", "potency (µM)": "2.349", "curve as filed": "falling, full curve"}
{"smiles": "O=C1C=CC[C@@H]2[C@H]3CCCN4CCC[C@@H](CN12)[C@@H]34", "potency (µM)": "29.57", "curve as filed": "falling, partial curve, poor fit"}
{"smiles": "Cc1cnc(-c2cnc(NCCNc3ccc(C#N)cn3)nc2-c2ccc(Cl)cc2Cl)[nH]1", "condition": "active = Z-AUC below -0.8 in all three lines", "potency (µM)": "1.321", "curve as filed": "falling, full curve"}
{"smiles": "CC(C)(Sc1cc(C(C)(C)C)c(O)c(C(C)(C)C)c1)Sc1cc(C(C)(C)C)c(O)c(C(C)(C)C)c1", "condition": "active = Z-AUC below -0.8 in all three lines", "potency (µM)": "3.317", "curve as filed": "falling, partial curve, poor fit"}
{"smiles": "CO[C@H]1CCC(O[C@H]2C[C@H]([C@]3(C)CC[C@]4(C[C@H](O)[C@@H](C)[C@@H]([C@@H](C)C=C(C)C(=O)[C@H](C)C[C@H](C)C(=O)O)O4)O3)O[C@]3(O[C@@H]([C@H]4O[C@@](O)(CO)[C@H](C)C[C@H]4C)C[C@H]3C)[C@H]2C)O[C@H]1C", "stereo": "stereo not given in full", "potency (µM)": "2.635", "curve as filed": "falling, full curve"}
{"smiles": "O[C@@H](CNC[C@H](O)[C@H]1CCc2cc(F)ccc2O1)[C@@H]1CCc2cc(F)ccc2O1", "condition": "active = Z-AUC below -0.8 in all three lines", "potency (µM)": "16.63", "curve as filed": "falling, partial curve"}

The results are deposited in PubChem (AID1963991; NCATS, 2024).